Patent publication US20080020412A1, “Aurora expression constructs” (priority 2006, published 2008)
No constants are given. Whether binding was seen depends on the method and setting. In cells and extracts the contact can be indirect. Some binding calls cover weakened binding; strength is not graded here.

Amino acid sequences for entries named in this document (tags omitted). A change or cut given only in a name is not applied to a line headed by its entry. Residues count along the entry.
UniProt P0A6F5, residues 2-548: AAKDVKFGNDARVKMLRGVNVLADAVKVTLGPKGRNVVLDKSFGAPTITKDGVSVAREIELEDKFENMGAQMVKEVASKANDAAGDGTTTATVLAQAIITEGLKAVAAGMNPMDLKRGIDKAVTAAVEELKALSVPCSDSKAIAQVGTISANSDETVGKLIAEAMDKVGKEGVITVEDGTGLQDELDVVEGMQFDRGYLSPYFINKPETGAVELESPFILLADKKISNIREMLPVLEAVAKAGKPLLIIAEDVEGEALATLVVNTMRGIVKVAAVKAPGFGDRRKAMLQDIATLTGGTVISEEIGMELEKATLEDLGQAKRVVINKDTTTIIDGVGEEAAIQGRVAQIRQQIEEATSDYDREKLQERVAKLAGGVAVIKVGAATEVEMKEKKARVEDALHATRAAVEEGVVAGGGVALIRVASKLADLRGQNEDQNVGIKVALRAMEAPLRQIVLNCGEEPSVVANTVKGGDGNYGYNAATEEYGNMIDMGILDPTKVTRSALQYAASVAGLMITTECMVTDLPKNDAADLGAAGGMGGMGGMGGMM
UniProt P97477: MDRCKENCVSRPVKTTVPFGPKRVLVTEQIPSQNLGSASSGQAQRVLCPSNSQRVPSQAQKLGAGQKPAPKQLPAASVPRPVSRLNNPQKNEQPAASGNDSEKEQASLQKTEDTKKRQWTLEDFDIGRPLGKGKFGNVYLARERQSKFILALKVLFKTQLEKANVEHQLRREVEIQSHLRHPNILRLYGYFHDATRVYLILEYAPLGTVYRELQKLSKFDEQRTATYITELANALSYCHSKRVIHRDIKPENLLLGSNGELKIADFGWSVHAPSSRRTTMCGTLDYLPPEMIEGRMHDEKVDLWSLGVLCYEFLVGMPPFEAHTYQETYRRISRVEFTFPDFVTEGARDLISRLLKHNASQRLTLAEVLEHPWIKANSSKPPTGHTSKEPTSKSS
UniProt O70126: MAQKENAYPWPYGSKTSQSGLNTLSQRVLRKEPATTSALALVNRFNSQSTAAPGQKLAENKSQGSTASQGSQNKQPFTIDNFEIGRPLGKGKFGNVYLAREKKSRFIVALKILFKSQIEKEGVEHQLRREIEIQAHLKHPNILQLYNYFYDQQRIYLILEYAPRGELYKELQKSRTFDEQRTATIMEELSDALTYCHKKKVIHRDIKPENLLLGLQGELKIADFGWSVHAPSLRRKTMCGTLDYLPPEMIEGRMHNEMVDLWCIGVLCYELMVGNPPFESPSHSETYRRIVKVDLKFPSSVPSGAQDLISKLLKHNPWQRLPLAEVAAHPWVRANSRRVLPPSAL

How the values were obtained:
[1] = target: bacterial chaperone protein GroEL (E. coli) (UniProt P0A6F5); experiment: copurification; complexes removed on Q-Sepharose
[2] = target: bacterial chaperone protein GroEL (E. coli) (UniProt P0A6F5); experiment: copurification from E. coli lysate

Substance | binding [1] | binding [2]
mouse Aurora-A residues 98-395 (corresponds to 107-403 human) (from UniProt P97477 97-395) (enzyme) | binds | –
mouse Aurora-A residues 116-381 (corresponds to 125-391 human) (from UniProt P97477 116-381) (enzyme) | binds | –
wild-type full-length mouse Aurora-B (from UniProt O70126 1-345) (enzyme) | – | binds
